Source: patent US20260265316A1, “IMMUNOTHERAPEUTIC METHODS, COMPOUNDS, AND COMPOSITIONS FOR TREATING OR PREVENTING CELIAC DISEASE” (DBV Technologies, priority 2023, published 2026)
Some of these results come from one statement about several compounds together.

B1: QLQPFPQPELPYPQPELPYPQPELPYPQPQPGPRRKKPQPEQPEQPFPEQPQGARRKKPQQPFPQPEQPFPWQPQGPKKPSGEGSFQPSQENPQ (peptide)
chain: QLQPFPQPELPYPQPELPYPQPELPYPQPQPGPRRKKPQPEQPEQPFPEQPQGARRKKPQQPFPQPEQPFPWQPQGPKKPSGEGSFQPSQENPQ
B2: QLQPFPQPELPYPQPELPYPQPELPYPQPQPKKKKPQPEQPEQPFPEQPQKKKKPQQPFPQPEQPFPWQPQKKKKPSGEGSFQPSQENPQ (peptide)
chain: QLQPFPQPELPYPQPELPYPQPELPYPQPQPKKKKPQPEQPEQPFPEQPQKKKKPQQPFPQPEQPFPWQPQKKKKPSGEGSFQPSQENPQ

Format: physicochemical
Details: pure water, PBS 1× pH 7.0, artificial perspiration pH 4.5; room temperature and 32° C.
Source text: Dimerization appeared to be faster in artificial perspiration and at higher concentration.

Molecule	time stable in solution
B1	at least 24 hours
B2	at least 24 hours
